The source of these data is article PMC9647036.

By UniProt entry, the sequences of proteins in these tests, tags left out. Residues count along the entry.
UniProt O97302, residues 720-934: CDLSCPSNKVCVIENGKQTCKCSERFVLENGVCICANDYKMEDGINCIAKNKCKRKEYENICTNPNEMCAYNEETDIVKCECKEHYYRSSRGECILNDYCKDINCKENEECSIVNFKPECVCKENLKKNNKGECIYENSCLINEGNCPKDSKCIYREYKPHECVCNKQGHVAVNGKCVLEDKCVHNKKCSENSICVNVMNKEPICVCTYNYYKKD

No constants are given. Whether binding was seen depends on the method and setting.

The experiment has as its target PfRipr5 (protein fragment of PfRipr, aa C720-D934) (Plasmodium falciparum) (UniProt O97302). Put plainly: SEC + other: dynamic light scattering; HPLC-SEC on XBridge BEH 125 Å column, 16 mM sodium phosphate, 250 mM NaCl, pH 8.0, 20 micrograms injected; DLS on Spectro Light 600; both purified.

On to “PfRipr5 (protein fragment of PfRipr, aa C720-D934) (from UniProt O97302 720-934) (domain or fragment)”, for which the binding entry was “no binding”.
